Experimental data as given in paper PMC12125883.
No constants are given. Whether binding was seen depends on the method and setting. Binding seen in cells or lysates may run through a third protein. Some binding calls cover weakened binding; strength is not graded here.

The chains behind the UniProt entries cited, without tags or fusion partners.
UniProt Q13950: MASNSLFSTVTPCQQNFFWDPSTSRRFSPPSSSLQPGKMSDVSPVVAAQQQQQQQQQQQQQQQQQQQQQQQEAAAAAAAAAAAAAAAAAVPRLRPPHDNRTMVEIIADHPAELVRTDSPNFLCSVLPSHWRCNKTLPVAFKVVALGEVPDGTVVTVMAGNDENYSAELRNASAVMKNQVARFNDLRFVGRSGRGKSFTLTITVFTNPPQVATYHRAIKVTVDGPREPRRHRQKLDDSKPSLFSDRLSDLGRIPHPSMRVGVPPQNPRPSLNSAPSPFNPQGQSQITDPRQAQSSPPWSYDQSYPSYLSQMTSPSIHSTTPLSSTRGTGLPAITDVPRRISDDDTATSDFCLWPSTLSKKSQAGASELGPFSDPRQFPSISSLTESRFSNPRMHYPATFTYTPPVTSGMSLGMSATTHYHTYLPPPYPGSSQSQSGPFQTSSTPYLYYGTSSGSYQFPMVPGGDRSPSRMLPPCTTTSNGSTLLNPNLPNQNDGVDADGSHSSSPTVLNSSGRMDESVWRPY
UniProt Q93009: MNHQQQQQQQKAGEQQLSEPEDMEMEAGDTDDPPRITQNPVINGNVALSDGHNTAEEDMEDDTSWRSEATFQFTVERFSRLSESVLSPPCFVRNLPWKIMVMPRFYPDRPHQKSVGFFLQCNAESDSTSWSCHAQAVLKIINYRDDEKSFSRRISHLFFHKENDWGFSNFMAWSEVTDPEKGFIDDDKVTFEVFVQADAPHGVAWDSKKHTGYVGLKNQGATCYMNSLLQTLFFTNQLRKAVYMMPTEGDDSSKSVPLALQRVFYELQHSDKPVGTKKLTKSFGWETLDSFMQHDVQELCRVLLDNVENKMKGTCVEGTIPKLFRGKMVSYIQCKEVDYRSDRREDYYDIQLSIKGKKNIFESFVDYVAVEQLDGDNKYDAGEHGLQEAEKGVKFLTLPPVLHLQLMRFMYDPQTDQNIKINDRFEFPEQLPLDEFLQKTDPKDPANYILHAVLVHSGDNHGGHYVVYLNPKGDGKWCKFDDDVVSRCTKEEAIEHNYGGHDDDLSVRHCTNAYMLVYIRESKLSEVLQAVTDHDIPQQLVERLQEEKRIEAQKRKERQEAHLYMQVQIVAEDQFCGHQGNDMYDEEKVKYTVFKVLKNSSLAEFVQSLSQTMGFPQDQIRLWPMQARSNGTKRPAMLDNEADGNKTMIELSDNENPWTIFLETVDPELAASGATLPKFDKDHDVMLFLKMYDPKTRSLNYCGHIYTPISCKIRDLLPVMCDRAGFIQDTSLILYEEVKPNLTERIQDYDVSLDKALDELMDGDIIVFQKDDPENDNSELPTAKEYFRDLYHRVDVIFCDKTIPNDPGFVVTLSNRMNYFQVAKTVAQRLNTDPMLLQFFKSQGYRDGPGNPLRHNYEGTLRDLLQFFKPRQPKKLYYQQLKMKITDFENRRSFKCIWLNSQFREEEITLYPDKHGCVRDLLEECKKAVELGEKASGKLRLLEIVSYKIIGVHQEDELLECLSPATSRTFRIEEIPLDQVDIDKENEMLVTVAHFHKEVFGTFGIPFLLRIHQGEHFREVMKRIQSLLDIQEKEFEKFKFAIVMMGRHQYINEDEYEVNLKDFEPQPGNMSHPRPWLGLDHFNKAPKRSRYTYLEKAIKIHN

Biological target: Flag-RUNX2 (Runt-related transcription factor 2) (UniProt Q13950)
Test: co-IP; Flag-RUNX2 and HA-USP7 co-transfected into HEK293T cells, lysed after 48 h; immunoprecipitation with Flag or HA antibody, immunoblot

binding: binds
Substance: HA-USP7 (ubiquitin-specific protease 7) (from UniProt Q93009 1-1102) (enzyme)
